{"source": "patent US20250340671A1", "about": "“METHODS AND PHARMACEUTICAL COMPOSITIONS FOR REDUCING THE NEURO[…] OF COCAINE” (University of Cincinnati, priority 2022, published 2025)", "tested_on": "lever-pressing behavior in rats", "test": "Single-dose reinstatement (SDR) of lever-pressing after 12 μmol/kg cocaine", "assay_type": "in vivo, Male Sprague-Dawley rats", "settings": "SCH23390 10 to 30 nmol/kg before SDR; FIG. 1 and FIG. 2", "note": "“Also recorded” adds a separate entry of the source. For at least one compound, name, drawing or mass did not settle the structure."}
{"compound": "CN1CCc2cc(Cl)c(O)cc2[C@@H](c2ccccc2)C1", "note": "[SCH23390]", "values": [{"measurement": "calculated cocaine level at which lever-pressing activity commences", "result": "higher calculated cocaine level at the onset of lever-pressing activity; also recorded: increasing in a dose dependent manner"}]}
